# Reference: patent publication US5998362A, “Conjugates useful in the treatment of prostate cancer” (priority 1997, dated 1999)
# At least one peptide structure holds a part that was inferred or is arguable (an end, a ring closure or a residue). Where a SMILES comes first, the peptide text is derived from it. [ ]: non-standard residue; d: D form. The star is where a group is joined. Doxorubicin(3'-N) = COc1cccc2c1C(=O)c1c(O)c3c(c(O)c1C2=O)C[C@@](O)(C(=O)CO)C[C@@H]3O[C@H]1C[C@H](N*)[C@H](O)[C@H](C)O1; X2 = COCCOCCOCCOCCOCCOCCOCCOCCOCCOCCOCCOCCOCCOCCOCCOCCOCC(=O)*; Decanoyl(3,6,9-trioxa) = COCCOCCOCC(=O)*; hArg = N=C(N)NCCCC[C@H](N)C(=O)O
# System: DuPRO cells
# Test: In vitro cytotoxicity of peptidyl derivatives of doxorubicin, Alamar Blue assay, DuPRO
# Format: cell-based
# Conditions: 3 days incubation, read-out: DuPRO cell kill EC 50 (μM), value in parentheses
# Protocol: The cytotoxicities of the cleaveable oligopeptide-doxorubicin conjugates, prepared as described in Examples 3-6, against a line of cells which is known to be killed by unmodified doxorubicin was assessed with an Alamar Blue assay. Specifically, cell cultures of LNCap prostate tumor cells or DuPRO cells in 96 well plates was diluted with medium containing various concentrations of a given conjugate (final plate well volume of 200 μl). The cells were incubated for 3 days at 37° C., 20 μl of Alamar Blue is added to the assay well. The cells were further incubated and the assay plates were read on a EL-310 ELISA reader at the dual wavelengths of 570 and 600 nm at 4 and 7 hours after addition of Alamar Blue. Relative percentage viability at the various concentration of conjugate tested was then calculated versus control (no conjugate) cultures. If no salt is indicated, the free conjugate was tested.
row,SMILES,EC50
1,"COCCOCCOCCOCCOCCOCCOCCOCCOCCOCCOCCOCCOCCOCCOCCOCCOCC(=O)N[C@@H](CO)C(=O)N[C@@H](CCCCNC(=N)N)C(=O)N[C@@H](Cc1ccc(O)cc1)C(=O)N[C@@H](CCC(N)=O)C(=O)N[C@@H](CO)C(=O)N[C@@H](CC(C)C)C(=O)N[C@H]1C[C@H](O[C@H]2C[C@](O)(C(=O)CO)Cc3c(O)c4c(c(O)c32)C(=O)c2c(OC)cccc2C4=O)O[C@@H](C)[C@H]1O [PEG(16)-ShRYQ-SL-DOX(3'), PEG(16)-SerhArgTyrGln-SerLeu-DOX (3')] (X2-S[hArg]YQSL-{Doxorubicin(3'-N)})",100 µM
2,"COCCOCCOCC(=O)N[C@@H](CO)C(=O)N[C@@H](CCCCNC(=N)N)C(=O)N[C@@H](Cc1ccc(O)cc1)C(=O)N[C@@H](CCC(N)=O)C(=O)N[C@@H](CO)C(=O)N[C@@H](CC(C)C)C(=O)N[C@H]1C[C@H](O[C@H]2C[C@](O)(C(=O)CO)Cc3c(O)c4c(c(O)c32)C(=O)c2c(OC)cccc2C4=O)O[C@@H](C)[C@H]1O [PEG(2)-ShRYQ-SL-DOX(3'), PEG(2)-SerhArgTyrGln-SerLeu-DOX(3')] ({Decanoyl(3,6,9-trioxa)}-S[hArg]YQSL-{Doxorubicin(3'-N)})",100 µM
